In patent US12662465B2, “EGFR inhibitors” (Blueprint Medicines Corporation, priority 2021, dated 2026):
The match of structure and compound is tentative.

By UniProt entry, the sequences of proteins in these tests, tags left out. Where a name states a change or a piece, a line headed by the entry shows the natural chain unless it says otherwise. Residues count along the entry.
UniProt P00533, 25-1210 L858R limits assumed: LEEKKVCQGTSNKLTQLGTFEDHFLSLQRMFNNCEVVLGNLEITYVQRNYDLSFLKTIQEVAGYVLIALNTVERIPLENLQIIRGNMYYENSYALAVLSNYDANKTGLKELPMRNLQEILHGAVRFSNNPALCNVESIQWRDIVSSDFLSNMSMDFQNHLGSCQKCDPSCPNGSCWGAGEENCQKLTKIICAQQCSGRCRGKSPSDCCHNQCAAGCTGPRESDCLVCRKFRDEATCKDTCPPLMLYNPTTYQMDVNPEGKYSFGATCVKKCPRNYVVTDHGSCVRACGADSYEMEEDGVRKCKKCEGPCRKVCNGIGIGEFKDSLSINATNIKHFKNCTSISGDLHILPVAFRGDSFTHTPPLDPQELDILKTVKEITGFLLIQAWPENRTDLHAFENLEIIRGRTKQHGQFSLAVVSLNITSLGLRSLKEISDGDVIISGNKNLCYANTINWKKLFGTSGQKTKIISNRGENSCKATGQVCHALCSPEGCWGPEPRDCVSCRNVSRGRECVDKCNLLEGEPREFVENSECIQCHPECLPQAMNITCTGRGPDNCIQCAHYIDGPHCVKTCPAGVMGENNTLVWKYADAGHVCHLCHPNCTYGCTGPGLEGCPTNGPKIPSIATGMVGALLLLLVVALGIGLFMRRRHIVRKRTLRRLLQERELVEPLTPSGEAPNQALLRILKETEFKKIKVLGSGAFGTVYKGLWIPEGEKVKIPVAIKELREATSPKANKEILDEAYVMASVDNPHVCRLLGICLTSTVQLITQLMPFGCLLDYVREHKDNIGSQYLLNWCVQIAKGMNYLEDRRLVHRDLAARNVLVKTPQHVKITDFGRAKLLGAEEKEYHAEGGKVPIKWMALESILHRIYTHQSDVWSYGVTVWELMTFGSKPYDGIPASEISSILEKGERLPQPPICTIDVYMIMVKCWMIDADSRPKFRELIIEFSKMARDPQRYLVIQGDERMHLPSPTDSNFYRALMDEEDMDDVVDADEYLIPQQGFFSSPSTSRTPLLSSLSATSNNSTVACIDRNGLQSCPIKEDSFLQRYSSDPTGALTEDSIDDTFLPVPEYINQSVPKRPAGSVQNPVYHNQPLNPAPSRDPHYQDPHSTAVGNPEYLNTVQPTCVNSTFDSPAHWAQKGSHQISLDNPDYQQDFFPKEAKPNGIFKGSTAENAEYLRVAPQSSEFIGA

Assays:
[1] = target: intracellular phosphorylation of EGFR (Tyr1068) in PC-9 cells (Ex19Del) (Homo sapiens, UniProt P00533, DEL746-750); assay: PC-9 pEGFR AlphaLISA assay; format: cell-based; conditions: read-out: Ext pEGFR_PC-9 Ex19Del IC50, 4 hours compound incubation
[2] = target: EGFR (d746-750) (Homo sapiens, UniProt P00533, DEL746-750); assay: Biochemical EGFR inhibition assay (Caliper mobility shift), EGFR (d746-750); conditions: read-out: Enz EGFR_Exon19-del746-750 IC50; 1.0 mM ATP or ATP Km; room temperature (25° C.)
[3] = target: EGFR L858R (Homo sapiens, UniProt P00533, L858R); assay: Biochemical EGFR inhibition assay (Caliper mobility shift), EGFR L858R; conditions: read-out: Enz EGFR_L858R IC50; 1.0 mM ATP or ATP Km; room temperature (25° C.)

CC(Oc1cc(-c2cnn(C)c2)cc2ncnc(Nc3ccc4ncccc4c3F)c12)C1CCOCC1 (single isomer, unassigned)
IC50 [1]: 10.1 to 50 nM | IC50 [2]: < 10 nM | IC50 [3]: < 10 nM
